Reference: PubChem BioAssay AID1224826 (NIAID, 2016)

Aim: 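Genes that change LPS-induced Tnf promoter activity in mouse macrophages when knocked down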 (primary screen)
System: RAW264.7 G9 macrophages from mouse bearing reporters for p65 (GFP) and the Tnf promoter (mCherry)
Reagents: siRNA pool against mouse genes, 100 nM
Timing: 16 h of LPS stimulation, after 2 days of siRNA transfection
Treatment: bacterial lipopolysaccharide (Salmonella minnesota R595), 10 ng/ml
Read-out: 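Nuclear mCherry signal of the Tnf promoter reporter measured by imaging after background removal, scaled to each plate median and turned into robust z-scores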
Reading the numbers: Tnf reporter robust z-score: higher = stronger Tnf promoter reporter signal after LPS
Active means: 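Called active when robust z-score is at most -1.3, matching the median of the Tlr4 knock-down control, or over 3; control wells and wells with under 50 cells never active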
Calls: active = Tnf reporter clearly lowered or raised; inactive = no clear change in Tnf reporter
The whole screen tested about 17,000 reagents; shown is a part drawn at random. Over the whole deposit, about 1,110 (6.6%) were called active. 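Active means lowered or raised reporter signal; replicate intensities are raw and not normalised per plate.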 Unmarked entries are inactive. Some reagents were tested in more than one well and are listed for each. Further read-outs or replicates are left out here.

| gene symbol | Tnf reporter robust z-score | fewer than 50 cells in well |
| --- | --- | --- |
| Rpn2 (ribophorin II) | -1.95 (active) | enough cells in well |
| Kcne5 | 0.34 | enough cells in well |
| Pgm2l1 (phosphoglucomutase 2-like 1) | 0.63 | enough cells in well |
| Hcfc1r1 (host cell factor C1 regulator 1 (XPO1-dependent)) | -1.37 (active) | enough cells in well |
| Hormad1 (HORMA domain containing 1) | – | fewer than 50 cells per well; well left out of calls |
| Or52e4 (olfactory receptor family 52 subfamily E member 4) | 0.95 | enough cells in well |
| Elf2 (E74-like factor 2) | -0.38 | enough cells in well |
| Cdc42ep3 (CDC42 effector protein 3) | 0.77 | enough cells in well |
| Lrfn1 | -0.67 | enough cells in well |
| Msr1 (macrophage scavenger receptor 1) | 0.28 | enough cells in well |
| Plek (pleckstrin) | -0.05 | enough cells in well |
| Or4p8 (olfactory receptor family 4 subfamily P member 8) | -0.52 | enough cells in well |
| Crnkl1 (crooked neck pre-mRNA splicing factor 1) | – | fewer than 50 cells per well; well left out of calls |
| Pcdhgb6 (protocadherin gamma subfamily B, 6) | – | fewer than 50 cells per well; well left out of calls |
| Cacng5 (calcium channel, voltage-dependent, gamma subunit 5) | -0.59 | enough cells in well |
| Cd3e (CD3 antigen, epsilon polypeptide) | 1.61 | enough cells in well |
| Cd3e (CD3 antigen, epsilon polypeptide) | -0.71 | enough cells in well |
| Oscar (osteoclast associated receptor) | 0.94 | enough cells in well |
| Ica1 (islet cell autoantigen 1) | 0.33 | enough cells in well |
| Zfp609 (zinc finger protein 609) | -0.34 | enough cells in well |
| Eogt (EGF domain specific O-linked N-acetylglucosamine transferase) | -0.65 | enough cells in well |
| Dnajb1 (DnaJ heat shock protein family (Hsp40) member B1) | 4.33 (active) | enough cells in well |
| Susd3 (sushi domain containing 3) | -0.77 | enough cells in well |
| Vmn2r29 (vomeronasal 2, receptor 29) | 1.55 | enough cells in well |
| Prex1 | 1.31 | enough cells in well |
| Tnfsf12 (tumor necrosis factor (ligand) superfamily, member 12) | -0.3 | enough cells in well |
| Rcn2 (reticulocalbin 2) | 3.61 (active) | enough cells in well |
| Tmem230 (transmembrane protein 230) | -0.84 | enough cells in well |
| Pycr2 (pyrroline-5-carboxylate reductase family, member 2) | -0.7 | enough cells in well |
| Prl3b1 (prolactin family 3, subfamily b, member 1) | -0.02 | enough cells in well |
| Crispld1 (cysteine-rich secretory protein LCCL domain containing 1) | -1.36 (active) | enough cells in well |
| Mapk12 (mitogen-activated protein kinase 12) | -0.24 | enough cells in well |
| Tfap2e (transcription factor AP-2, epsilon) | 0.53 | enough cells in well |
| Efna4 (ephrin A4) | 0.6 | enough cells in well |
| Mccc2 (methylcrotonoyl-Coenzyme A carboxylase 2 (beta)) | -0.02 | enough cells in well |
| Sestd1 (SEC14 and spectrin domains 1) | 0.37 | enough cells in well |
| Rnf138 (ring finger protein 138) | 1.49 | enough cells in well |
| Cyp3a44 (cytochrome P450, family 3, subfamily a, polypeptide 44) | 0.03 | enough cells in well |
| Aoc2 (amine oxidase copper containing 2) | -1.02 | enough cells in well |
| Dlst (dihydrolipoamide S-succinyltransferase) | 0.94 | enough cells in well |
| Nr3c2 (nuclear receptor subfamily 3, group C, member 2) | -0.2 | enough cells in well |
| Sec22a (SEC22 homolog A, vesicle trafficking protein) | 0.39 | enough cells in well |
| Shcbp1 (Shc SH2-domain binding protein 1) | -0.28 | enough cells in well |
| Rab12 (RAB12, member RAS oncogene family) | 0.04 | enough cells in well |
| Pou4f1 (POU domain, class 4, transcription factor 1) | -0.59 | enough cells in well |
| Or7g17 (olfactory receptor family 7 subfamily G member 17) | 1.72 | enough cells in well |
| Or9r3 (olfactory receptor family 9 subfamily R member 3) | -1.5 (active) | enough cells in well |
| Tmem81 (transmembrane protein 81) | – | fewer than 50 cells per well; well left out of calls |
| Pfdn1 (prefoldin 1) | 0.13 | enough cells in well |
| Zc2hc1c (zinc finger, C2HC-type containing 1C) | 0.2 | enough cells in well |
| Cd160 (CD160 antigen) | -1.41 (active) | enough cells in well |
| Tgfbr3 (transforming growth factor, beta receptor III) | -0.44 | enough cells in well |
| Pex2 (peroxisomal biogenesis factor 2) | 0.06 | enough cells in well |
| Gjc3 (gap junction protein, gamma 3) | 0.06 | enough cells in well |
| Orc6 (origin recognition complex, subunit 6) | -0.37 | enough cells in well |
| Sag (S-antigen, retina and pineal gland (arrestin)) | 0.44 | enough cells in well |
| Ubl7 (ubiquitin-like 7 (bone marrow stromal cell-derived)) | – | fewer than 50 cells per well; well left out of calls |
| Rspo3 (R-spondin 3) | 2.14 | enough cells in well |

Called active, of those listed so far:
| gene symbol | Tnf reporter robust z-score | fewer than 50 cells in well |
| --- | --- | --- |
| Rpn2 (ribophorin II) | -1.95 (active) | enough cells in well |
| Hcfc1r1 (host cell factor C1 regulator 1 (XPO1-dependent)) | -1.37 (active) | enough cells in well |
| Dnajb1 (DnaJ heat shock protein family (Hsp40) member B1) | 4.33 (active) | enough cells in well |
| Rcn2 (reticulocalbin 2) | 3.61 (active) | enough cells in well |
| Crispld1 (cysteine-rich secretory protein LCCL domain containing 1) | -1.36 (active) | enough cells in well |
| Or9r3 (olfactory receptor family 9 subfamily R member 3) | -1.5 (active) | enough cells in well |
| Cd160 (CD160 antigen) | -1.41 (active) | enough cells in well |
